The record followed here is article PMC12650828.

Sequences of proteins named here, by UniProt entry; tags and fusion partners are left off.
UniProt P19338, whole entry: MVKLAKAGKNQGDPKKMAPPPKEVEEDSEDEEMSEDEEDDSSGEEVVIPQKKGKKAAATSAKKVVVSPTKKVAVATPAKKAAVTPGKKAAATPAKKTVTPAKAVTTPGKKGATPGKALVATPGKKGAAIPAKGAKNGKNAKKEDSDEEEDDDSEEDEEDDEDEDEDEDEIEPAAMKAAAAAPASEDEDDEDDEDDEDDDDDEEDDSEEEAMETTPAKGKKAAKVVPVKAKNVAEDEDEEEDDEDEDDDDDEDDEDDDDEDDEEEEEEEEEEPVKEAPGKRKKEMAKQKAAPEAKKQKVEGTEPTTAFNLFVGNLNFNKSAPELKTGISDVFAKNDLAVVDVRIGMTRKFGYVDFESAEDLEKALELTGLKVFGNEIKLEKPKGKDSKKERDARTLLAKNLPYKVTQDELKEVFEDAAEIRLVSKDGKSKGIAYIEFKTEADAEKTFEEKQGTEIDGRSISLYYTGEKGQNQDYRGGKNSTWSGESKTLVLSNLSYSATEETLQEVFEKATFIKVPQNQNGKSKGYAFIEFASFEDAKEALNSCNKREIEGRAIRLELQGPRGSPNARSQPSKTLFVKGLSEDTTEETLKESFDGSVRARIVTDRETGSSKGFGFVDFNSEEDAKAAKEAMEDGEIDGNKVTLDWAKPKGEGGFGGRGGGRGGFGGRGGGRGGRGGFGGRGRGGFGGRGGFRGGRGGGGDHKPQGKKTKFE

Construct, isoform or probe ends are uncertain for at least one entry. Where cells or extracts were used, other partners may take part. No signal at the amounts used counts as a negative.

This data set deals with cell-surface nucleolin (NCL) (UniProt P19338). Kind of data set: competition with a labelled probe. The conditions noted are these: protein on the cell surface.

Take GGTGGTGGTGGTTGTGGTGGTGGTGG [AS1411]: the binding result (folded or branched DNA) was “binds”.
On to “GUUAGAGUUUGAGAUUG [Mut (mutant sequence)]”, for which the binding result was “no binding”.
